Experimental data reported in US20070196376A1.
Residue numbers refer to the chain shown, from its start. Results are given in words; binding and its absence hold for the method and conditions named. For some of these results: Binding can be weak; no strength is given.

B1: mAb 7.159.2 (ATCC Accession Number PTA-7424) (antibody, V domains shown)
VH: QVQLVQSGAEVKKPGASVKVSCKASGYTFTSYDINWVRQATGQGLEWMGWMNPNSGNTGYAQKFQGRVTMTRNTSISTAYMELSSLRSEDTAVYYCARDPYYYYYGMDVWGQGTTVTVSS
VL: QSVLTQPPSVSAAPGQKVTISCSGSSSNIENNHVSWYQQLPGTAPKLLIYDNNKRPSGIPDRFSGSKSGTSATLGITGLQTGDEADYYCETWDTSLSAGRVFGGGTKLTVLG
B2: mAb 7.34.1 (ATCC Accession Number PTA-7423) (antibody, V domains shown)
VH: QVQLQESGPGLVKPSETLSLTCTVSGGSISSYYWSWIRQPPGRGLEWIGYFFYSGYTNYNPSLKSRVTMSVDTSKNQFSLKLSSVTAADTAVYYCACITGTTKGGMDVWGQGATVTVSS
VL: QSVLTQAPSVSGAPGQRVTISCTGRSSNIGAGYDVHWYQQFPGTAPKLLIYGNSNRPSGVPDRFSGSKSGTSASLAITGLQAEDEADYYCQSYDSSLSGSVFGGGTKLTVLG
B3: mAb 7.251.3 (ATCC Accession Number PTA-7422) (antibody, V domains shown)
VH: B2 VH with R43K, M69I, A113T
VL: B2 VL with A7P, R25S, F41L, S54N, E83D, Y93F
B4: mAb 7.234.2 (antibody, V domains shown)
VH: QLQLQESGPGLVKPSETLSLTCTVSGGSINSSSNYWGWIRQPPGKGLAWIGGIYYSGSTYYNPSLRSRVTMSVDTSKNQFSLKLSSVTAADTAVYYCARQRGHSSGWWYFDLWGRGTLVTVSS
VL: DIQMTQSPSSVSASVGDRVTITCRASRGISSWLAWYQQRPGKAPKLLIYTASSLQSGVPSRFSGSGSGTDFTLTISSLQPEDFATYYCQQANSFPFTFGPGTKVDIKR

Biological target: IGFBP-3 (IGF-binding protein 3)
Assay: Biacore, mAb immobilised, IGFBP-3 454 nM; called nonspecific

binding	Binder
binds	B1
binds	B2
binds	B3

Biological target: rat insulin (rat)
Assay: ELISA

binding	Binder
no binding	B4
no binding	B1
no binding	B2
no binding	B3
